In paper doi:10.1101/2025.08.12.669934 (bioRxiv, 2025) one finds binding data, which are given here for 2 molecules.

The chains behind the UniProt entries cited, without tags or fusion partners. Where a name states a change or a piece, a line headed by the entry shows the natural chain unless it says otherwise.
UniProt Q07878, whole entry: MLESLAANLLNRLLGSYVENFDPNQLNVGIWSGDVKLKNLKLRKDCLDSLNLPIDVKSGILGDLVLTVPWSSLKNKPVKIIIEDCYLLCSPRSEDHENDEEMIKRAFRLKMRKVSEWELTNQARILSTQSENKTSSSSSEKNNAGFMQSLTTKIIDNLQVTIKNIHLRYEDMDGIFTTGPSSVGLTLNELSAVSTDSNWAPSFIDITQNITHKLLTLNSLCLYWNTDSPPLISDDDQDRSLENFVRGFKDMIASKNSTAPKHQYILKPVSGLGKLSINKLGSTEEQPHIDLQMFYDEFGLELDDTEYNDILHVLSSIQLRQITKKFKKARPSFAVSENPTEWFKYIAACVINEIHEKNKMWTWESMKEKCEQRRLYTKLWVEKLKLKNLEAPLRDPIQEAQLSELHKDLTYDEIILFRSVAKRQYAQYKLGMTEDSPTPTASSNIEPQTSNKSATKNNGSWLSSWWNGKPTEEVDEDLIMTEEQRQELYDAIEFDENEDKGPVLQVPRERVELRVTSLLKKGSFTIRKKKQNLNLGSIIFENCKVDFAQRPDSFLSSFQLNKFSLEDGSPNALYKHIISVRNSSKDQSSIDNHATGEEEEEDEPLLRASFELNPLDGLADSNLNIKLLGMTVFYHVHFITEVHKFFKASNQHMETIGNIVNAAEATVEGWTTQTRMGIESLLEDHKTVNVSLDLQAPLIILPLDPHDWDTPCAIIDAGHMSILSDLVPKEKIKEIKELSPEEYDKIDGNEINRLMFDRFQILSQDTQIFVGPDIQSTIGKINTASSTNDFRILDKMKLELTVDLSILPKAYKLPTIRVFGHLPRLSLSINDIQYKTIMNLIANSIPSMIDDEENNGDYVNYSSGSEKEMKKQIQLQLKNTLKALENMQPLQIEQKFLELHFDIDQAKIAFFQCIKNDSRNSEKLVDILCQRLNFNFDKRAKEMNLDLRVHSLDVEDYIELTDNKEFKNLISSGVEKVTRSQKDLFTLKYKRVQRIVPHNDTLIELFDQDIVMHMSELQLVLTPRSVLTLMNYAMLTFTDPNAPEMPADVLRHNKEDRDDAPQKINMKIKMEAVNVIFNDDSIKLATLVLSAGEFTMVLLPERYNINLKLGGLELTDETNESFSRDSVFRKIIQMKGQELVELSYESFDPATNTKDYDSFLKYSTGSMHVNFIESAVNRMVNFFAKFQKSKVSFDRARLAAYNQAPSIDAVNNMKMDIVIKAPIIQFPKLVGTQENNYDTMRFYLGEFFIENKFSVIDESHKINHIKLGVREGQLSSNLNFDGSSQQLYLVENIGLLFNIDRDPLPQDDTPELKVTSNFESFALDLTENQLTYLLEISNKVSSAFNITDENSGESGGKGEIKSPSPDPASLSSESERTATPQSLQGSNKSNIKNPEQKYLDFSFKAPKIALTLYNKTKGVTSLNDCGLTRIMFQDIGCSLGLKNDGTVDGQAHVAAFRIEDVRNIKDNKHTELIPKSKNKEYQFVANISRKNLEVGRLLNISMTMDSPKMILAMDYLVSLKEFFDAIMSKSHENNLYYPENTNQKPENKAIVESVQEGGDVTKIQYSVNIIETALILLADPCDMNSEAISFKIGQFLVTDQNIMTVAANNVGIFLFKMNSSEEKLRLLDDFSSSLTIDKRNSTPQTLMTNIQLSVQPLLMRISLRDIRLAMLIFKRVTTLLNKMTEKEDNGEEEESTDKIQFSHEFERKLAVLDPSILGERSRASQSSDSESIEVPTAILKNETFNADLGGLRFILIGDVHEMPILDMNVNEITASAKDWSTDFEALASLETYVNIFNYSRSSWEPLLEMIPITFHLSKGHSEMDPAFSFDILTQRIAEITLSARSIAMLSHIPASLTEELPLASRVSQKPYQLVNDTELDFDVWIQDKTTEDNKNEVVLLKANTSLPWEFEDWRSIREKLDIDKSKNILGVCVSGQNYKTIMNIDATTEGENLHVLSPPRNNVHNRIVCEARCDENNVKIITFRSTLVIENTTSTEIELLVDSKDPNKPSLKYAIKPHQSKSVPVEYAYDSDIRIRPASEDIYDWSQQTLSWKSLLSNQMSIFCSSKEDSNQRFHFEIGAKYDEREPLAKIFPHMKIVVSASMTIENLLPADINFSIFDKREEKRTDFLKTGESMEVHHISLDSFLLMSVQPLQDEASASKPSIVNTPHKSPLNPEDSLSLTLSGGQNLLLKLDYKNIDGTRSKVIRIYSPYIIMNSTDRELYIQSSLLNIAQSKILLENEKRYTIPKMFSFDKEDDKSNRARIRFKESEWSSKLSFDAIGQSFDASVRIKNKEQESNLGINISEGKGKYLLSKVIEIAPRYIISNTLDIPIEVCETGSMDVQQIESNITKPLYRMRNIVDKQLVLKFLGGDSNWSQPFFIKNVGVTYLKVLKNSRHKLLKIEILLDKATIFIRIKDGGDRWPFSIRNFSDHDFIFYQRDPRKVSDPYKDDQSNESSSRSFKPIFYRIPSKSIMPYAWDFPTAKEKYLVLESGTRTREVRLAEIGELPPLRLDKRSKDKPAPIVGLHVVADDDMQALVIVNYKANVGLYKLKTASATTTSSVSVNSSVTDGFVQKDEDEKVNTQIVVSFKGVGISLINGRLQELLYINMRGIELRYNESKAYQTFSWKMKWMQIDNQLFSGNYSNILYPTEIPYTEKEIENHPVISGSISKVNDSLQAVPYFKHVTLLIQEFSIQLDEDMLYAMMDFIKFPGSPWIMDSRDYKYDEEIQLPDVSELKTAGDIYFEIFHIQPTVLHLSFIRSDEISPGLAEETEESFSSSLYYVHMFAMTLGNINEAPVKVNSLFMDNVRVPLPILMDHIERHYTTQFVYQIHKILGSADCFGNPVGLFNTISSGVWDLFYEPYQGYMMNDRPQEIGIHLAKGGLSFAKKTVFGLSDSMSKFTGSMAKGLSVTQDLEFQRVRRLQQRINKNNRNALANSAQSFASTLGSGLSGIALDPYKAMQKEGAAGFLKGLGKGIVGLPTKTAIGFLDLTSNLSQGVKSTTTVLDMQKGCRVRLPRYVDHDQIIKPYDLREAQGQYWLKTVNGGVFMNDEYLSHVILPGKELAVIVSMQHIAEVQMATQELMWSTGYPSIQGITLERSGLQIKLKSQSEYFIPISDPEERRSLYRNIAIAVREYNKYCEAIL

These are yes or no findings as the source states them, for the method shown. Binding seen in cells or lysates may run through a third protein. Some results given as binding are weak or reduced against the parent protein; the word gives no strength. For some of these results: Tags and fused reporters may be left off the sequences shown.

Test in all cases: co-IP
The target in one test is Vps13^GFP (wild type) (S. cerevisiae, UniProt Q07878 1-3144).
The target in test [1] is Vps13 H^2397A ^GFP (S. cerevisiae) (UniProt Q07878).
For test [2], the target named is Vps13 E^2491A GT^2493-4A T^2496A ^GFP (S. cerevisiae) (UniProt Q07878).

B1: Ypt35-3HA (natural protein, S. cerevisiae, UniProt P38815 1-214, looked up)
chain: MSDKISFLPPEPIQLLDEDSTEPELDIDSQQENEGPISASNSNDSTSHSNDCGATITRTRPRRSSSINANFSFQKAHVSDCTIVNGDHGTKFAVWRITVFLEPNLKAFAAKRESYKIQTYKRYSDFVRLRENLLTRIKTAKPEKLNCLQIPHLPPSVQWYSSWKYQEVNLNKDWLAKRQRGLEYFLNHIILNSSLVEMTKDILIQFLEPSKRVA
For the molecule B1, the binding result (in the test with Vps13^GFP (wild type); in test [1]) was “binds” each time.

B2: Spo71-HA (protein, UniProt Q03868 1-1245)
chain: MDSIVNVVEDDVKYAQRVTSFSSPQNANVKVFTIPRHSFTAFRLSYVSPTELSACSQVTLLGGIPKQWYADQNNQVWKLLTKISLRKVRKQSDMLRRYGYGTIYKKRVGKIPTALYLRKHFTWSYEDNTSIHNGHRLKEAEMEMKRTRSSPVQKSEYKLSLPRRCRSSSDQNFMRQELLKEKKSELSRNNSLPLIDTAQAVDIHPVLHEEDQENTNKRNKSLLSNLKRKDLGESKSISRKDYSHFDRIPSPSSARSVGETDFNYNREPSEDTLRYPDSIIEVTNRTSPAPNSILSRSGQFVNSNDLSDGFSTSNTINNVGLNANEKIFFNALQSMEKENLMLWKTSQKYGTYLDERRKSADAFQKRERGSCVDIGKLHSSHLPFINILPPWPTELTEEERIIHDRLASKHSHHIRKHVHNARNKTSCKIKDSVGTFLGMTNSLTNKATVKKRTGQILKKEKMLVMVKEAIQNKVPLPNFSENECFDTRVSERWKEYIVIARSTGRFDPPILLQFYRHRHIPEIEDISSIATKYHRNPLDFFLSRNCIVKFYSSLDKTISIQKPDKRLGGFIDESIEKKDELKHYSPIKIFILRCSSIRSSGRWYKFLLESLDRQLFTPAINLKIPLTEISIKINLNEIIFQKLIDLGKQEKDRLKICFLQRGYKIFQHPILRYFTVAILEKLKLAHYDYLIRKWDTENPVLGCALKRYDRLEWIPCDEDSLVTGIFAFCQSHLIQYRPIANRLRETKSLEGKCLKEPTPIEGFLIRLTDKYGSARTNFGKYSISTAYFFTCENLLFSMKAYRANPPLPIDSMIDDTSTEIEKEEIWKQWKKIPEVYEQQPYPLDTNDHIEWMNCQTTQSEYDSRDFYAFHCFHRRIDQILKTDNVIDLTEVKDIYQGTRTDYEADKIKYGVYKEASEIFWHRNYEIDDVSRSVINIETSNGLLLKLLATSATVAEEWVIKLKQMISYWKNKQREDTERLLKIRRSNAGLLMLNGEEETKIGENTLRWIVEHGRADEQTFNANGISLSRPLIQKGPLYQKPHKHSVFSKYYVVLISGFIVLFHCFHRSTTGFAKEVLEYAHYVTIPIDDCYLYSGTTTELDLLQRDRTFDEINYGSHALPRVYGDGWRSVEDESSRCFTLWFGTRRALSSNRLQKKGNEKQYTQDYGRQDNNIDPPSAPEADLNNSNVPSNTDKIHFTKKLGVSGKSMVFMARSRQERDLWVMSIYYELERLRRTASTSNSRNQTM
With B2, the binding result (in the test with Vps13^GFP (wild type); in test [2]) was “binds” throughout.
